# Test results from PubChem BioAssay AID540336 (Broad Institute, 2011).
# Amino acid sequences for entries named in this document (tags omitted).
# UniProt Q5AAJ8, whole entry, looked up: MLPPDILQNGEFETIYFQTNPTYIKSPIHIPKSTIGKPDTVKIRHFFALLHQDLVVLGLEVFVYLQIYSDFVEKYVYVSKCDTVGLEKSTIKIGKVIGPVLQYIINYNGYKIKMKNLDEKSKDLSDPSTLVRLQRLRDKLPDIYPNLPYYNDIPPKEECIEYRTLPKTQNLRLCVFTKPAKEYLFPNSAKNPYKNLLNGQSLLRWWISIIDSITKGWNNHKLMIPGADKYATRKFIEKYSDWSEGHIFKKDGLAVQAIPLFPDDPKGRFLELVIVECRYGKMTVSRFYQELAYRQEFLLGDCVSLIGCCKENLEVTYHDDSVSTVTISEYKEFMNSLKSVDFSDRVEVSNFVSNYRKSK
# Among all 330,000 compounds or so, about 520 (0.16%) were called active. The shares of active, inactive and inconclusive entries below differ from those in the screen.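 The calls were made as follows: active = inhibition of at least 50% in every replicate; inconclusive = best replicate reaches 50% inhibition but some replicates fall short; inactive = the rest.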
# Molecular target: Histone acetyltransferase RTT109 (Candida albicans (strain SC5314 / ATCC MYA-2876)) (UniProt Q5AAJ8)
# Assay: Rtt109-Vps75 histone acetyltransferase blockade – biochemical, ThioGlo CoA-SH fluorescence, plate reader, primary screen (AID 540336)
# Details: purified Rtt109/Vps75, ThioGlo CoA-SH fluorescence, 4 h; at 34.9 µM; hits give high values
row,Compound,inhibition
1,COc1cc(C(=O)NC2CCN(C)CC2)ccc1Nc1ncc2c(n1)N(C1CCCC1)CCC(=O)N2C(C)C,inconclusive: 49%
2,O=C(CSc1cn[nH]n1)Nc1cccc(C(=O)O)c1,active: 81.4%
3,O=C(CN1C(=O)C2CCCCC2C1=O)Nc1ccccc1N1CCCC1 (stereo not given),inactive: 19.2%
4,CCOc1ccc2c(C)nc(NC3=NC(C)(C)C=C(C)N3)nc2c1,inconclusive: 45.9%
5,Cc1c(CNCCCc2ccccc2)c(C(=O)O)c(C)n1Cc1ccccc1,inconclusive: 29.7%
6,CN(C)CCNC(=O)/C(=C/c1ccc(-c2ccc(Cl)cc2Cl)o1)NC(=O)c1ccccc1,inconclusive: 49.4%
7,CC1=C(C(=O)Nc2ccccc2)C(c2ccc(Cl)cc2)n2c(s/c(=C/c3cccc(OCC(=O)O)c3)c2=O)=N1 (stereo not given),inconclusive: 53%
8,COc1ccccc1-c1c(C)nn2c(N)c(-c3ccccc3)cnc12,inactive: -3.14%
9,CS(=O)(=O)Cc1ccc(C(=O)N(CCc2ccccc2)Cc2ccccc2)cc1,inactive: 3.92%
10,CCN(CC)c1ccc(NC(=O)c2cccc(C)c2OC)c(C)c1,inactive: 1.98%
11,COc1ccc(-c2cc(O)cc(O)c2)cc1,inconclusive: 31.8%
12,c1ccc(C(c2nnnn2C2CCCC2)N2CCCCCC2)nc1 (stereo not given),inconclusive: 31.7%
13,Cc1nn(CC(=O)NCc2cccnc2)c(C)c1[N+](=O)[O-],active: 68.2%
14,COc1cc2cc(CN(Cc3cccs3)C(=S)Nc3ccc(C)cc3)c(=O)[nH]c2cc1OC,inactive: -6.78%
15,Cc1ccc2c(c1)sc(C)[n+]2CCCS(=O)(=O)[O-],inconclusive: 65.3%
16,Oc1ccc(NC(=S)Nc2ccccc2)cc1,inconclusive: 19.9%
17,Cc1cccc(-c2nc(CSCC(=O)N3CCN(Cc4ccc5c(c4)OCO5)CC3)c(C)o2)c1,inactive: -3.28%
18,Cc1c(Cc2ccccc2)c(NCCN(C)C)n2c(nc3ccccc32)c1C#N,inconclusive: 29.9%
19,CCN(CC(=O)Nc1ccc(NC(C)=O)cc1)C(=O)CN1C(=O)C2CCCCC2C1=O (stereo not given),inconclusive: 23.3%
20,CN(C)CCNC(=O)Nc1ccc(Cl)c(Cl)c1,inconclusive: 28.5%
21,COCc1cc(C)nc(OCC(=O)N/N=C/c2ccc(OC)c(O)c2)c1C#N,inactive: 9.27%
22,CCN(CC)S(=O)(=O)c1ccc(N2CCOCC2)c(NC(=O)c2cc(C)cc(C)c2)c1,inconclusive: 39%
23,Cc1cc(Cl)ccc1NC(=S)NCCC(c1ccccc1)c1ccccc1,inactive: 3.58%
24,CCOC(=O)N1CCN(C(c2cccnc2)c2ccc3cccnc3c2O)CC1 (stereo not given),inconclusive: 152%
25,CCc1ccc(-c2cnc3nc[nH]c(=O)c3n2)cc1,inactive: 3.4%
26,CCOC(=O)c1cnc(-c2ccccc2)nc1N1CC(C)OC(C)C1 (stereo not given),inconclusive: 30.2%
27,CCOc1ccc(Oc2ccc(NC(=O)CSc3nncn3C)cc2)cc1,inconclusive: 37.2%
28,Oc1c(Cl)cc(Cl)c(Cl)c1Cc1c(O)c(Cl)cc(Cl)c1Cl,active: 70.6%

# Another view of four compounds above.
row | Compound | inhibition
2 | O=C(CSc1cn[nH]n1)Nc1cccc(C(=O)O)c1 | active: 81.4%
11 | COc1ccc(-c2cc(O)cc(O)c2)cc1 | inconclusive: 31.8%
17 | Cc1cccc(-c2nc(CSCC(=O)N3CCN(Cc4ccc5c(c4)OCO5)CC3)c(C)o2)c1 | inactive: -3.28%
24 | CCOC(=O)N1CCN(C(c2cccnc2)c2ccc3cccnc3c2O)CC1 (stereo not given) | inconclusive: 152%

# (list continues)

row,Compound,inhibition
1,O=C(NNC(=O)c1csc(N2CCOCC2)n1)c1cccnc1,inconclusive: 17%
2,CCCCOc1ccc(C(=O)N=c2sccn2C)cc1OC,inactive: 15.6%
3,CC(C(=O)OCC(=O)c1ccc([N+](=O)[O-])cc1)N1C(=O)C2C3C=CC(C3)C2C1=O (stereo not given),inconclusive: 69.8%
4,CCCNC(=O)c1nnsc1S(=O)c1ccc(Cl)cc1 (stereo not given),inconclusive: 57%
5,Cc1cc(C)c(-n2c(SCC(=O)N3CCOCC3)n[nH]c2=O)c(C)c1,inconclusive: 28.7%
6,Cc1cc(NC(=O)c2ccccc2[N+](=O)[O-])ccc1Br,inconclusive: 30%
7,[N-]=C=C1C(=S)NC(=O)[C@H]([n+]2ccccc2)[C@H]1c1ccc(Cl)cc1,inconclusive: 39.1%
8,COc1cc2cc(/C=C/C(=O)c3ccco3)c(Cl)nc2cc1OC,inactive: -1.59%
9,COc1cc(C(c2nnnn2C(C)(C)C)N2CCN(c3nc4ccccc4s3)CC2)ccc1O (stereo not given),active: 65.8%
10,Cc1c(CCOC(=O)CC23CC4CC(CC(C4)C2)C3)sc[n+]1CC(=O)c1ccc(Br)cc1,inconclusive: 51.8%
11,COc1cccc2c1C(=O)c1c(O)c3c(c(O)c1C2=O)C[C@@](O)(C(=O)CO)C[C@@H]3O[C@H]1C[C@H](N)[C@H](O)[C@H](C)O1,inconclusive: 47.8%
12,O=C(N/N=C/c1ccc(Cl)cc1)c1ccc2c(c1)OCO2,inactive: 10.7%
13,Cc1ccc(C(=O)CSC2=NC(N)=C(C#N)C3(CCCCC3)C2C(N)=O)cc1 (stereo not given),inconclusive: 48.9%
14,CCCCc1ccc(NS(=O)(=O)N(C)C)cc1,inconclusive: 43.3%
15,COc1cc(NS(=O)(=O)c2ccc(N/C=C(\C=O)c3nc4ccccc4o3)cc2)nc(OC)n1,inconclusive: 47%
16,S=c1[nH]nc(C2CC2)n1Cc1ccco1,inactive: -7.75%
17,C/C=C(\C)C(=O)Nc1cccc(C2=NOC3(C2)C[C@H](C(N)=O)N(C(=O)C(c2ccccc2)c2ccccc2)C3)c1 (stereo not given in full),inconclusive: 25.2%
18,Cc1ccc(C2=NS(=O)(=O)N(C)C(C(=O)Nc3cc(C)n(CC(=O)N4CCC(C)CC4)n3)=C2)cc1,inconclusive: 51.5%
19,C=CC#CC[N+]1(CC#Cc2ccccc2)CCOCC1,inactive: 0.553%
20,COc1ccc(-c2nc(CN3CCN(Cc4cccc(Cl)c4)CC3)c(C)o2)cc1,inactive: -0.578%
21,O=C(O)c1ccc(N2CCCCCC2)c(N2C(=O)c3ccccc3C2=O)c1,inactive: -1.4%
22,CCCCc1nnc(NC(=O)CSc2nc(O)c(Cc3ccccc3)c(=O)[nH]2)s1,inactive: 10.6%
23,CCN(CC)CCCNc1nc2cc(OC)c(OC)cc2c2nc(-c3cccnc3)nn12,active: 79.1%
24,O=C(CNC(=O)c1ccc(F)cc1)c1ccc(Cl)cc1,active: 52.4%
25,CC[C@H](C)Cc1cn([C@@H](CCCCN)C(=O)NCCCCCCCCCCC(=O)N2CCNCC2)nn1,inconclusive: 43.9%
26,CC(=O)N(CCC(Cc1ccccc1)c1ccco1)Cc1ccco1 (stereo not given),active: 53%
27,CC1CN(c2ccc([N+](=O)[O-])c(NCCOc3ccccc3)c2)CCN1 (stereo not given),inactive: 7.85%
